Measured values as given in PubChem BioAssay AID1487 (National Center for Advancing Translational Sciences (NCATS), 2009).
Hit rate of the full screen: of about 200,000 compounds, about 25 (0.01%) were called active. Inconclusive means that the source gave no clear call. Such entries were picked first, then a sample of the others. Calls follow the shape of the dose curve; as a rule, active = well fitted inhibition curve with a large enough effect in the signal ratio, with a control signal flat (not every such curve was filed as active); inconclusive = small, poorly fitted or top-dose-only effect, or effect the other way, or a change in a side signal; inactive = flat fitted curve, though single readings scatter; the % refers to the signal ratio. A potency beside an inconclusive call is a rough fit, not a confirmed value.

assay: qHTS Assay for Modulators of Lamin A Splicing; settings: HeLa LMNA splicing GFP/RFP minigene ratio, 48 h; ratio change, negative = inhibition: at 46.1 µM (top of the series) unless noted
In short: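 S3 HeLa stable clones carrying a lamin A-EGFP splicing minigene plus DsRed2 were seeded at 600 cells/well in Opti-MEM with 2% FBS, pin-dosed and incubated 48 h at 37°C. Acumen cytometry (488 nm) gave the GFP/RFP total-intensity ratio.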
% is scaled to controls: 0 for no effect and ±100 for the full control effect; potency is read from the fitted curve at half-maximal effect.

Compound | ratio change, negative = inhibition | Potency
COCCNC(=S)NCCc1ccc(Cl)cc1Cl | inconclusive: -34.7% [at 46 µM] | –
Cc1cc2oc3c(c(=O)c2cc1C)C(c1ccc(F)cc1)N(CCCN1CCOCC1)C3=O (stereo not given) | inactive: 1.85% | –
CCC(=O)c1cc(F)c(N2CCN(S(=O)(=O)c3ccccc3)CC2)cc1C | – | inconclusive: 35.5 µM [falling, single point]
O=C(CSC1=NCCS1)N1CCN(c2ccc(Cl)cc2)CC1 | – | inconclusive: 11.2 µM [inhibitor, partial curve]
Cc1ccc(-c2c3c([nH]c(=S)c2C#N)CCCC3)o1 | inactive: 8.62% | –
C=CCn1c(=O)c(C(=O)Nc2ccccc2S(N)(=O)=O)c(O)c2ccccc21 | inconclusive: 22.6% [at 46 µM] | –
CCN1CCN(CCCN(Cc2ccco2)C(=S)Nc2cc(Cl)ccc2C)CC1 | inconclusive: -18.2% [at 46 µM] | –
CCc1ccccc1NC(=O)c1cc(S(=O)(=O)N(CC)c2ccccc2)ccc1F | inactive: -7.21% [at 46 µM] | –
O=C(Nc1ccc2[nH]c(=S)sc2c1)c1ccccc1 | inactive: -17.1% | –
COc1ccc(-c2nc(C)c(CCNC(=O)C(=O)Nc3cccc(F)c3)s2)cc1OC | – | inconclusive: 35.5 µM [rising, single point]
COc1ccc2cc(C(=O)Nc3ccc(O)cc3)sc(=O)c2c1OC | – | inconclusive: 22.4 µM [falling, partial curve, poor fit]
Cc1ccc2c(Cl)c(C(=O)NCCc3ccccc3)sc2c1 | inconclusive: 9.6% | –
COc1ccccc1-c1cc(C(F)(F)F)nc(S(=O)(=O)CCCC(=O)N2CCCCC2C)n1 (stereo not given) | inconclusive: 177% | –
O=[N+]([O-])c1ccc(Oc2cccc3cccnc23)c([N+](=O)[O-])c1 | inconclusive: -28.3% | –
N#Cc1ccc(/C=C/C(=O)c2ccco2)cc1 | inconclusive: -3.67% | –
COc1cc(C(=O)OCc2ccc(C)cc2)cc(NC(=O)c2cccs2)c1OC | inconclusive: 11.7% | –
CC1=C(C(=O)OCc2ccccc2)C(c2ccccn2)c2c(n(C)c(=O)n(C)c2=O)N1 (stereo not given) | inconclusive: 9.99% | –
Cc1ccccc1C(=O)Nc1nnc(-c2ccc(F)cc2)o1 | – | inconclusive: 12.6 µM [falling, single point]
Cc1c(C(=O)Nc2ccccc2-c2ccccc2)cccc1[N+](=O)[O-] | inactive: 10.9% | –
Cc1cc(C)cc(OCC(=O)NCC(c2ccc(Cl)cc2)N2CCCCC2)c1 (stereo not given) | – | inconclusive: 35.5 µM [cytotoxic, single point]
COc1ccc(Nc2nc(Cl)c(C=O)s2)cc1 | inconclusive: -50.2% [at 46 µM] | –
Cc1ccccc1Cn1cc(NC(=O)c2cc(-c3ccco3)on2)cn1 | inconclusive: -17.9% [at 46 µM] | –
Cc1ccc(S(=O)(=O)N2CCOCC2)cc1NC(=O)CSc1nc2ccccc2c(=O)n1Cc1ccccc1 | inconclusive: -1.24% | –
COc1ccc(-n2cnnc2SCc2ncc(-c3ccccc3)o2)cc1 | inconclusive: 9% | –
Cc1cc(C)n(-c2cc(N3CCN(C(=O)c4cccc(F)c4)CC3)ccc2[N+](=O)[O-])n1 | – | inconclusive: 35.5 µM [fluorescent, single point]

Compound | ratio change, negative = inhibition | Potency
O=C(CSc1ccsc1[N+](=O)[O-])N1CCCCCC1 | – | inconclusive: 0.01 µM [activator, full curve, poor fit]
COc1cc(C2C(C#N)=C(N)N(Nc3ccccc3)C3=C2C(=O)CC(C)(C)C3)ccc1OCc1ccccc1 (stereo not given) | inconclusive: -11.9% | –
C=CCNC(=O)c1onc(CSc2cc(C)cc(C)c2)c1C(=O)O | inconclusive: 11.1% [at 0.0737 µM] | –
O=C(CSCc1ccc(Br)cc1)Nc1ccc(S(=O)(=O)N2CCOCC2)cc1 | inconclusive: -23.4% | –
COc1cccc(C(=O)NCc2ccc3c(c2)CCN3C(=O)c2ccncc2)c1 | inconclusive: -6.5% [at 46 µM] | –
COc1ccc(/C=C2\Sc3ccc(C(=O)NCc4cccnc4)cc3N(C)C2=O)cc1OC | inconclusive: 43.3% [at 46 µM] | –
COc1cccc(CNC(=O)Cn2c(=O)ccc3cc(S(=O)(=O)N4CCC(C)CC4)ccc32)c1 | inactive: -10.9% [at 46 µM] | –
COc1cc(SC)ccc1C(=O)NC1CCCCC1 | inactive: 2.59% | –
O=S(=O)(c1ccc(NC(=S)N2CCN(c3ccccc3F)CC2)cc1)N1CCOCC1 | inconclusive: -34% [at 46 µM] | –
Cc1ccc2[nH]c3c(=O)n(N)c(C)nc3c2c1 | inactive: -7.04% [at 46 µM] | –
Cc1nc2cc(-c3ccc(Cl)cc3)nn2c(C)c1CCC(=O)NC(C)c1ccc2c(c1)OCCO2 (stereo not given) | – | inconclusive: 20 µM [inhibitor, single point]
O=S(=O)(NCC1CCCO1)c1cnc(Cl)c(Cl)c1 (stereo not given) | inconclusive: 3.32% | –
CC(C)CC(=O)N1CCN(C(=O)CCC2CCCC2)CC1 | inconclusive: 7.78% | –
Cc1cc(/C=C2\SC(=S)NC2=O)c(C)n1C | inactive: 12.2% | –
CN1CCN(C2(CNC(=O)c3ccc(C(C)(C)C)cc3)CCCCC2)CC1 | inconclusive: -26.7% [at 46 µM] | –
FC(F)(F)c1ccc(NC(=S)NC2CCCCC2)cc1 | – | inconclusive: 35.5 µM [falling, single point]
CCOC(=O)C1CCN(C(=O)c2ccc(Br)o2)CC1 | inactive: 13.3% | –
c1ccc(OCc2nc3c4c(ncn3n2)-c2ccccc2CC42CCCC2)cc1 | inactive: -13.2% | –
CCSc1nc(-c2ccccc2)c(-c2ccccc2)n1CC(O)CO (stereo not given) | inconclusive: -24.6% [at 46 µM] | –
O=C(NCc1ccccc1)c1ccc(-c2ccc(F)cc2)o1 | – | inconclusive: 35.5 µM [fluorescent, single point]
O=C(Nc1ccn(Cc2ccc(Cl)cc2)n1)c1ccccc1 | – | inconclusive: 14.1 µM [falling, single point]
CC(NC(=O)CN(C1CCCCC1)S(C)(=O)=O)c1ccccc1 (stereo not given) | inconclusive: -26% | –
CCC1(CC)NC(=O)N(CC(=O)N2N=C(c3ccc(Cl)cc3)CC2c2ccco2)C1=O (stereo not given) | inconclusive: -13.7% [at 46 µM] | –
O=C(NCCCl)c1ccc(OCc2ccccc2)cc1Cl | inconclusive: 20.4% [at 46 µM] | –
O=C(c1ccc(N2C(=O)C3C4c5ccccc5C(c5ccccc54)C3C2=O)cc1)N1CCOCC1 (stereo not given) | inconclusive: 4.18% | –

9 structures out of the list, arranged by length of the SMILES, low to high.
Compound | ratio change, negative = inhibition | Potency
O=C(NCCCl)c1ccc(OCc2ccccc2)cc1Cl | inconclusive: 20.4% [at 46 µM] | –
Cc1ccc2[nH]c3c(=O)n(N)c(C)nc3c2c1 | inactive: -7.04% [at 46 µM] | –
O=S(=O)(NCC1CCCO1)c1cnc(Cl)c(Cl)c1 (stereo not given) | inconclusive: 3.32% | –
CC(C)CC(=O)N1CCN(C(=O)CCC2CCCC2)CC1 | inconclusive: 7.78% | –
O=C(NCc1ccccc1)c1ccc(-c2ccc(F)cc2)o1 | – | inconclusive: 35.5 µM [fluorescent, single point]
CN1CCN(C2(CNC(=O)c3ccc(C(C)(C)C)cc3)CCCCC2)CC1 | inconclusive: -26.7% [at 46 µM] | –
COc1cccc(C(=O)NCc2ccc3c(c2)CCN3C(=O)c2ccncc2)c1 | inconclusive: -6.5% [at 46 µM] | –
CCC1(CC)NC(=O)N(CC(=O)N2N=C(c3ccc(Cl)cc3)CC2c2ccco2)C1=O (stereo not given) | inconclusive: -13.7% [at 46 µM] | –
COc1cc(C2C(C#N)=C(N)N(Nc3ccccc3)C3=C2C(=O)CC(C)(C)C3)ccc1OCc1ccccc1 (stereo not given) | inconclusive: -11.9% | –
